PubChem BioAssay AID1259331, Drosophila RNAi Screening Center | 2017
Purpose: 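Fly transmembrane-protein genes that affect zinc toxicity in cultured cells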 (primary screen). System: Drosophila S2R+ cells. Reagents: long dsRNA against Drosophila genes. Time to read-out: 5 days (4 days knock-down, then 1 day zinc). Challenge: zinc chloride at 15 mM final level for 1 day. Detection: 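Total cellular ATP measured by luciferase luminescence as a viability proxy, turned into Z scores from three plate copies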. Reading the numbers: mean Z score: higher = more ATP than other wells, better survival under zinc; ATP luminescence: higher = more ATP, more viable cells. Active means: 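a reagent is called a hit when its Z score is above 1.5 or below -1.5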. Calls: active = hit, ATP up or down; inactive = not a hit.
In all, the deposit lists about 3,100 reagents; below is a part drawn at random. Over the whole deposit, 126 (4.1%) got an active call. 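Calls are per reagent; zinc was so toxic that few knock-downs lowered ATP further, so most hits raise ATP.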 The raw values are shown without normalisation. Names joined by + are all predicted targets of the reagent. Reagent sequences are not shown. The record does not give: the amount of reagent.

| predicted target | DRSC id | mean Z score | ATP luminescence, replicate 1 | ATP luminescence, replicate 2 | outcome |
| --- | --- | --- | --- | --- | --- |
| CG32432 | DRSC11744 | -0.157 | 75724 | 57494 | inactive |
| CG33958 | DRSC06472 | -0.17 | 40742 | 44202 | inactive |
| CG33958 | DRSC06944 | -0.691 | 56482 | 61164 | inactive |
| CG33958 | DRSC29635 | -0.0978 | 58025 | 61781 | inactive |
| Syngr | DRSC06003 | 2.19 | 1.04e5 | 1.13e5 | active |
| Syngr | DRSC39806 | -0.411 | 45611 | 55522 | inactive |
| ORMDL | DRSC27778 | 0.236 | 60117 | 62433 | inactive |
| Or35a | DRSC03389 | -0.494 | 44822 | 36799 | inactive |
| Or35a | DRSC39514 | 0.0451 | 56088 | 47514 | inactive |
| Spase12 + CG2006 | DRSC14316 | 1.47 | 86994 | 93873 | inactive |
| PGAP1 | DRSC18286 | -0.604 | 40496 | 37399 | inactive |
| PGAP1 | DRSC28989 | 0.0459 | 65800 | 58335 | inactive |
| Gr58c | DRSC04136 | 0.446 | 60083 | 43914 | inactive |
| CG42287 | DRSC39820 | -0.0887 | 50515 | 59703 | inactive |
| ort | DRSC16240 | -0.134 | 39216 | 58471 | inactive |
| ort | DRSC39620 | 0.812 | 71402 | 79961 | inactive |
| CCKLR-17D1 | DRSC20011 | -0.422 | 37656 | 37827 | inactive |
| CCKLR-17D1 | DRSC20012 | -0.447 | 38192 | 35300 | inactive |
| CCKLR-17D1 | DRSC28081 | -0.226 | 58711 | 51580 | inactive |
| Recs1 | DRSC16545 | -0.104 | 36062 | 55076 | inactive |
| Recs1 | DRSC39698 | 0.455 | 68041 | 60238 | inactive |
| bumpel | DRSC16100 | 0.578 | 39079 | 68624 | inactive |
| stan | DRSC07697 | 0.384 | 82585 | 82414 | inactive |
| stan | DRSC39642 | -0.355 | 53704 | 52967 | inactive |
| Cirl | DRSC23235 | 0.421 | 48800 | 49640 | inactive |
| Cirl | DRSC28280 | 0.0736 | 62638 | 62415 | inactive |
| CG4025 | DRSC18523 | 0.397 | 74358 | 70870 | inactive |
| snky | DRSC09838 | -0.139 | 74404 | 56654 | inactive |
| snky | DRSC39770 | -0.694 | 43177 | 49880 | inactive |
| spict | DRSC02157 | -0.521 | 47440 | 50367 | inactive |
| spict | DRSC39463 | 0.0749 | 56585 | 53190 | inactive |
| Gr64d + Gr64e | DRSC28375 | -0.215 | 57339 | 58831 | inactive |
| Gr64d + Gr64e | DRSC39759 | -0.369 | 58831 | 56758 | inactive |
| Gr64d + Gr64e | DRSC39760 | -0.202 | 55813 | 61141 | inactive |
| nSyb | DRSC08727 | -0.379 | 30267 | 28769 | inactive |
| nSyb | DRSC27077 | -0.316 | 59089 | 50018 | inactive |
| CG11353 | DRSC08182 | -0.411 | 26239 | 29702 | inactive |
| CG11353 | DRSC39681 | 0.808 | 73272 | 70184 | inactive |
| rho-6 | DRSC02588 | -0.64 | 40097 | 36730 | inactive |
| rho-6 | DRSC29070 | 0.0866 | 59616 | 65897 | inactive |
| htl | DRSC16968 | -0.458 | 38959 | 41616 | inactive |
| htl | DRSC36668 | 0.215 | 49726 | 52264 | inactive |
| CG12531 | DRSC19466 | -0.0123 | 44531 | 41051 | inactive |
| CG12531 | DRSC27679 | 0.276 | 66034 | 59740 | inactive |
| Mayo | DRSC14300 | 0.519 | 75724 | 73563 | inactive |
| Tim17b2 | DRSC28544 | 0.0425 | 61369 | 62741 | inactive |
| CG14160 | DRSC10161 | -0.546 | 69790 | 53052 | inactive |
| Nup54 | DRSC07282 | -0.178 | 28827 | 30989 | inactive |
| nompC | DRSC03581 | -0.138 | 46863 | 41933 | inactive |
| nompC | DRSC39807 | -0.721 | 45440 | 46691 | inactive |
| ttv | DRSC07709 | -0.26 | 28056 | 30383 | inactive |
| ttv | DRSC26088 | -0.509 | 48046 | 50021 | inactive |
| CG2991 | DRSC00559 | -0.26 | 52024 | 53121 | inactive |
| CG2991 | DRSC26300 | 0.632 | 69275 | 69738 | inactive |
| CG14204 | DRSC19559 | 2.34 | 70424 | 74181 | active |
| CG14204 | DRSC29941 | 0.571 | 53053 | 53155 | inactive |
| CG3603 | DRSC18317 | -0.565 | 57442 | 55916 | inactive |
| CG3603 | DRSC39790 | 1.13 | 71361 | 73042 | inactive |
| Cln3 | DRSC10520 | 0.0403 | 81453 | 58797 | inactive |
| Cln3 | DRSC27270 | 0.371 | 64713 | 61695 | inactive |
| mys | DRSC18799 | -0.615 | 55865 | 55830 | inactive |
| mys | DRSC29061 | -0.167 | 58180 | 59466 | inactive |
| ACXD | DRSC23762 | -0.569 | 48766 | 53841 | inactive |
| snu | DRSC16589 | -0.589 | 41171 | 36542 | inactive |
| snu | DRSC39720 | -0.0243 | 54853 | 61678 | inactive |
| Or23a | DRSC00767 | -0.256 | 42765 | 42662 | inactive |
| Or23a | DRSC39706 | 0.117 | 62776 | 62535 | inactive |
| dsb | DRSC08542 | 0.0245 | 71812 | 74421 | inactive |
